Results on 1 substance are retold here after publication PMC6357195.

Results are given in words; binding and its absence hold for the method and conditions named. Binding seen in cells or lysates may run through a third protein. Binding can be weak; no strength is given. Tags and fused reporters may be left off the sequences shown.

The target of the assay is T1, tGFP-tagged PCDHB13 (protocadherin-β13) (human) (UniProt Q9Y5F0).
T1 sequence: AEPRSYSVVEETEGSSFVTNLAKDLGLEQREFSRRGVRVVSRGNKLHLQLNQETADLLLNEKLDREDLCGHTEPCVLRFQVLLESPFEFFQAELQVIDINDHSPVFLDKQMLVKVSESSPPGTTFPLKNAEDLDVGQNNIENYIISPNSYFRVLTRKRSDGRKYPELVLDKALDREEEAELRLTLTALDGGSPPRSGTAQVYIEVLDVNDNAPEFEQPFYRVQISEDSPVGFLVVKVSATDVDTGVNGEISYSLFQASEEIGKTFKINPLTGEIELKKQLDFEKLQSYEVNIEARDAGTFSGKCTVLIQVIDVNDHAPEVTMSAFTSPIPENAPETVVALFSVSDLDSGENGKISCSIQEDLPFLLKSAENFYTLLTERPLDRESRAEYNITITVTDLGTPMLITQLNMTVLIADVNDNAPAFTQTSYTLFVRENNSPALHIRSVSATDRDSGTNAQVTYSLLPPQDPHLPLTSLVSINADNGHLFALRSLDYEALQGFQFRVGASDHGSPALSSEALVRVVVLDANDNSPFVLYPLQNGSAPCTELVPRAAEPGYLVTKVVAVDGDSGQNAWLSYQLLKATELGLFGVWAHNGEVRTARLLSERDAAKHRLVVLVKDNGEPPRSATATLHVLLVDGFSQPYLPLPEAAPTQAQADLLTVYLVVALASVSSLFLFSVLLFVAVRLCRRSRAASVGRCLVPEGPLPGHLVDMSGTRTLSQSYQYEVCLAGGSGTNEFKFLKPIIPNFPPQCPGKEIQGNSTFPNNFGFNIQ
Nature of the assay: co-IP; 500 μg lysate of A549 cells overexpressing PCDHB13-tGFP or control tGFP; IP with anti-tGFP magnetic beads; eluates blotted for PCDHB13 and α-Tubulin.

On to α-Tubulin (human (endogenous in A549)), for which the binding result is “binds”.
